PubChem BioAssay AID1259405 | NCATS, 2018
Here is an unselected part of about 50,000 deposited reagents. About 4,000 of them (8%) were called active. 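Mouse siRNA library applied to hamster cells; one well for each siRNA.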 Reagents against one gene are numbered here. Reagent sequences are not shown.

- Screen: 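Silenced genes that increase secreted GFP made by CHO cells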 (primary screen)
- System: Chinese hamster CHO-K1 ovary cells with stable secreted eGFP expression
- Reagents: single siRNA against mouse genes, 0.8 pmol siRNA per well (2 µl of 400 nM stock)
- Duration: 3 days
- Measured: 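Percent of the per-plate non-targeting control median for intracellular GFP per well by laser scanning cytometry and for cell viability by ATP luminescence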
- Reading the numbers: GFP, % of control: higher = more GFP per well, higher productivity; viability (ATP), % of control: higher = more viable cells (more ATP)
- Call rule: 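Called active when intracellular GFP, relative to negative control, is at or above 120%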

target gene,siRNA no.,"GFP, % of control","viability (ATP), % of control",Outcome
Ankrd23 (ankyrin repeat domain 23),1,73.6,51.5,inactive
Ankrd23 (ankyrin repeat domain 23),2,61.9,59.4,inactive
Ankrd23 (ankyrin repeat domain 23),3,106,82.9,inactive
Artn (artemin),1,64.2,60.7,inactive
Artn (artemin),2,107,35.5,inactive
Artn (artemin),3,39.6,65.6,inactive
"Gabpb1 (GA repeat binding protein, beta 1)",1,45.6,43.6,inactive
"Gabpb1 (GA repeat binding protein, beta 1)",2,62.7,64.6,inactive
"Gabpb1 (GA repeat binding protein, beta 1)",3,80.2,83.1,inactive
"Nt5el (5' nucleotidase, ecto-like)",1,79.3,75.7,inactive
"Nt5el (5' nucleotidase, ecto-like)",2,104,65.3,inactive
"Nt5el (5' nucleotidase, ecto-like)",3,53.6,75.3,inactive
Pcbp3 (poly(rC) binding protein 3),1,94.2,84.3,inactive
Pcbp3 (poly(rC) binding protein 3),2,120,113,active
Vgll2 (vestigial like family member 2),1,46.9,47.9,inactive
Vgll2 (vestigial like family member 2),2,67.4,58.1,inactive
Vgll2 (vestigial like family member 2),3,87.3,97.5,inactive
Oas2 (2'-5' oligoadenylate synthetase 2),1,62.6,83.1,inactive
Oas2 (2'-5' oligoadenylate synthetase 2),2,65.4,67.5,inactive
Oas2 (2'-5' oligoadenylate synthetase 2),3,35.7,24,inactive
Pdcl (phosducin-like),1,76.7,117,inactive
Pdcl (phosducin-like),2,78.2,96.1,inactive
Rmc1 (regulator of MON1-CCZ1),1,83.3,106,inactive
Rmc1 (regulator of MON1-CCZ1),2,66,81.8,inactive
Rmc1 (regulator of MON1-CCZ1),3,80.2,72.9,inactive
Bzw1 (basic leucine zipper and W2 domains 1),1,93.7,86.7,inactive
Bzw1 (basic leucine zipper and W2 domains 1),2,62,76.2,inactive
Bzw1 (basic leucine zipper and W2 domains 1),3,64.9,61.4,inactive
Il17rb (interleukin 17 receptor B),1,74.5,70.7,inactive
Il17rb (interleukin 17 receptor B),2,52.5,55,inactive
"Cacng5 (calcium channel, voltage-dependent, gamma subunit 5)",1,136,76.5,active
"Cacng5 (calcium channel, voltage-dependent, gamma subunit 5)",2,23.3,30.7,inactive
"Cacng5 (calcium channel, voltage-dependent, gamma subunit 5)",3,71.9,85.4,inactive
Or12d16-ps1,1,76.6,60.8,inactive
Or12d16-ps1,2,59.9,84.8,inactive
Or12d16-ps1,3,85.8,98.3,inactive
Tcaf3 (TRPM8 channel-associated factor 3),1,89,82.7,inactive
Tcaf3 (TRPM8 channel-associated factor 3),2,98.8,90.8,inactive
Tcaf3 (TRPM8 channel-associated factor 3),3,79.3,68.9,inactive
Nab1 (Ngfi-A binding protein 1),1,87.2,79.6,inactive
Nab1 (Ngfi-A binding protein 1),2,97.8,99.2,inactive
Nat3 (N-acetyltransferase 3),1,89.2,90.9,inactive
Nat3 (N-acetyltransferase 3),2,65.2,68.4,inactive
Nat3 (N-acetyltransferase 3),3,61.4,74.2,inactive
"Rbmx2 (RNA binding motif protein, X-linked 2)",1,94,66.6,inactive
"Rbmx2 (RNA binding motif protein, X-linked 2)",2,113,84.6,inactive
"Rbmx2 (RNA binding motif protein, X-linked 2)",3,71.5,70.2,inactive
Cit (citron),1,95.2,74.6,inactive
Ppif (peptidylprolyl isomerase F (cyclophilin F)),1,25.5,44.4,inactive
Ppif (peptidylprolyl isomerase F (cyclophilin F)),2,78,71.8,inactive
Ppif (peptidylprolyl isomerase F (cyclophilin F)),3,96,73.2,inactive
Nudt10 (nudix hydrolase 10),1,129,82.8,active
Nudt10 (nudix hydrolase 10),2,123,80,active
Nudt10 (nudix hydrolase 10),3,76.1,67.2,inactive

In a second layout: entries from further up.
Nat3 (N-acetyltransferase 3) #3
- GFP, % of control: 61.4
- viability (ATP), % of control: 74.2
- Outcome: inactive

Rbmx2 (RNA binding motif protein, X-linked 2) #1
- GFP, % of control: 94
- viability (ATP), % of control: 66.6
- Outcome: inactive

Rbmx2 (RNA binding motif protein, X-linked 2) #2
- GFP, % of control: 113
- viability (ATP), % of control: 84.6
- Outcome: inactive

Rbmx2 (RNA binding motif protein, X-linked 2) #3
- GFP, % of control: 71.5
- viability (ATP), % of control: 70.2
- Outcome: inactive

Cit (citron)
- GFP, % of control: 95.2
- viability (ATP), % of control: 74.6
- Outcome: inactive

Ppif (peptidylprolyl isomerase F (cyclophilin F)) #1
- GFP, % of control: 25.5
- viability (ATP), % of control: 44.4
- Outcome: inactive

Ppif (peptidylprolyl isomerase F (cyclophilin F)) #2
- GFP, % of control: 78
- viability (ATP), % of control: 71.8
- Outcome: inactive

Ppif (peptidylprolyl isomerase F (cyclophilin F)) #3
- GFP, % of control: 96
- viability (ATP), % of control: 73.2
- Outcome: inactive

Nudt10 (nudix hydrolase 10) #1
- GFP, % of control: 129
- viability (ATP), % of control: 82.8
- Outcome: active

The results go on.
target gene,siRNA no.,"GFP, % of control","viability (ATP), % of control",Outcome
"Rbbp8 (retinoblastoma binding protein 8, endonuclease)",1,75.9,79.8,inactive
"Rbbp8 (retinoblastoma binding protein 8, endonuclease)",2,150,99.8,active
Hus1 (HUS1 checkpoint clamp component),1,45.5,67,inactive
Hus1 (HUS1 checkpoint clamp component),2,82.2,86,inactive
Hus1 (HUS1 checkpoint clamp component),3,75.3,87.3,inactive
Scin (scinderin),1,60.3,63.6,inactive
Scin (scinderin),2,44.3,44.9,inactive
Scin (scinderin),3,76.5,66.7,inactive
Tnc (tenascin C),1,45,36.4,inactive
Tnc (tenascin C),2,94.9,88.6,inactive
Jag2 (jagged 2),1,82.7,87.8,inactive
Jag2 (jagged 2),2,85.4,92.5,inactive
Jag2 (jagged 2),3,72.7,70.7,inactive
Slc7a12,1,90.7,61.9,inactive
Slc7a12,2,99,94.5,inactive
Slc7a12,3,102,88.9,inactive
Crtc3 (CREB regulated transcription coactivator 3),1,6.85,34,inactive
Crtc3 (CREB regulated transcription coactivator 3),2,75.4,103,inactive
Crtc3 (CREB regulated transcription coactivator 3),3,90.5,114,inactive
Tmpo (thymopoietin),1,52.4,28.7,inactive
Tmpo (thymopoietin),2,53.4,96.3,inactive
Tmpo (thymopoietin),3,101,60.3,inactive
Bmerb1 (bMERB domain containing 1),1,49.1,41.5,inactive
Bmerb1 (bMERB domain containing 1),2,63.5,33.7,inactive
Bmerb1 (bMERB domain containing 1),3,88.5,85.9,inactive
Urgcp (upregulator of cell proliferation),1,81.7,95.1,inactive
Urgcp (upregulator of cell proliferation),2,63.4,54.6,inactive
Urgcp (upregulator of cell proliferation),3,58.4,83.3,inactive
Acy1 (aminoacylase 1),1,97.8,87.6,inactive
Acy1 (aminoacylase 1),2,84,76.6,inactive
Acy1 (aminoacylase 1),3,64.6,23.4,inactive
